# Measured values published in PubChem BioAssay AID493014 (National Center for Advancing Translational Sciences (NCATS), 2011).
# Some of the results follow. The main result of the screen is listed elsewhere. These columns were measured beside it and carry no call. Compounds called inactive in the main read-out are mostly missing here. Words in brackets tell the shape of the fitted curve; partial curves, single points and poor fits give uncertain potencies.
# Experiment: qHTS Assay to Find Inhibitors of Chronic Active B-Cell Receptor Signaling
# Conditions: ABC-DLBCL IkBa-CBG/CBR reporter, luminescence ratio (green luciferase fused to IkBa over red control in TMD8 lymphoma cells), 4 h
# Method in brief: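 TMD8 ABC-DLBCL cells carrying doxycycline-inducible green luciferase fused to IkappaBalpha plus unfused red luciferase were exposed to compounds (up to 46 uM) for 4 hrs at 37C. Activity came from the overlap-corrected green/red luminescence ratio.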
# [1] = measured here: CBR red luminescence, cell number
SMILES,AC50 [1],AC50 (measured here: IkBa-CBG green luminescence)
CCOC(=O)c1csc(N/N=C2\CCCc3ccccc32)n1,"3.98 µM [rising, partial curve, poor fit]",–
COc1ccccc1C1CCN(C(=O)c2cccc([N+](=O)[O-])c2)CC1,"12.6 µM [falling, single point]",–
COc1ccc2c(-c3ccccc3)cc(SCC(=O)N(C)C)nc2c1,"22.4 µM [falling, single point]",–
CCOC(=O)N1CCC(N(CCN(C)C)C(=S)Nc2ccc(OCC)cc2)CC1,"25.1 µM [rising, single point]",–
OCCNc1nc(NCCC2=CCCCC2)nc(N2CCOCC2)n1,"1.78 µM [rising, partial curve, poor fit]",–
CCOc1cc(C(=O)CSc2nnc(CNc3ccc(Cl)cc3)o2)ccc1NC(=O)CC,"3.16 µM [falling, single point]",–
CC(C)[C@H](NS(=O)(=O)c1ccc2c(c1)OCCO2)C(=O)OCC(=O)Nc1ccccc1,"14.6 µM [falling, partial curve]",–
CCn1c(SCC(=O)Nc2nc3ccccc3s2)nc2c(c1=O)SC(C)C2 (stereo not given),"17.8 µM [falling, single point]",–
CCOc1ccc(N2CC(C(=O)Nc3cccnc3)CC2=O)cc1 (stereo not given),"3.98 µM [rising, full curve, poor fit]",–
CCOC(=O)c1sc(=S)n(-c2ccc(F)c(F)c2)c1N,"4.61 µM [falling, single point]",–
COc1ccc(CNC(=O)C(CC(C)C)NC(=O)c2ccccc2C)cc1 (stereo not given),"0.501 µM [rising, full curve, poor fit]",–
O=C(CN1C(=O)CC(c2ccco2)Sc2ccccc21)NC1CCCCC1 (stereo not given),"3.98 µM [falling, full curve, poor fit]",–
Cc1cccc(NC(=O)c2cc3c([nH]c4ccccc43)c(C)n2)c1C,"8.2 µM [falling, partial curve]",–
O=C(OC1CCCCC1)c1ccc(NC(=O)c2ccco2)cc1,"0.291 µM [rising, full curve, poor fit]",–
COCCCn1c(=O)/c(=C\c2ccccc2OC(C)C)s/c1=C(/C#N)C(=O)Nc1ccc(C(=O)O)cc1,"7.94 µM [falling, partial curve]",–
CCOc1ccc2nc(NC(=O)c3ccc(OCC4CCCO4)cc3)sc2c1 (stereo not given),"13 µM [falling, partial curve, poor fit]",–
O=C(CN1C(=O)c2ccccc2S1(=O)=O)NCCc1ccc(F)cc1,"0.326 µM [rising, full curve, poor fit]",–
Brc1cccc(OCCSc2ncccn2)c1,"11.2 µM [rising, partial curve, poor fit]",–
Cn1cccc1C(=O)NNC(=O)c1ccccc1Br,"11.6 µM [falling, single point]",–
O=C(Nc1ccc(N2CCCC2)cc1)c1ccccc1F,"1.64 µM [falling, full curve]",–

SMILES,AC50 [1],AC50 (measured here: IkBa-CBG green luminescence)
Cc1ccc(NC(=O)COc2cccc(-n3cnnn3)c2)cc1[N+](=O)[O-],"1.12 µM [rising, partial curve, poor fit]",–
Cc1cccc(-n2nnc(C(=O)NCc3ccc4c(c3)OCO4)c2N)c1,"7.94 µM [falling, partial curve, poor fit]",–
CC1CC(C)CN(C(=O)c2ccc3ncsc3c2)C1 (stereo not given),"25.9 µM [rising, single point]",–
Cc1ccc(C(=O)NC(=S)NNC(=O)c2ccccc2[N+](=O)[O-])cc1,"32.6 µM [falling, single point]",–
CCOC(=O)C1=C(C)NC2=C(C(=O)CCC2)C1c1cn(Cc2ccc(Cl)cc2Cl)nc1-c1ccccc1 (stereo not given),"7.08 µM [falling, full curve, poor fit]",–
O=C(N/N=C/c1c[nH]c2ccccc12)c1cc2ccccc2o1,"35.5 µM [falling, single point]",–
Cc1cc(C)cc(NC(=O)c2cc(S(=O)(=O)NCc3ccco3)ccc2F)c1,"8.91 µM [falling, partial curve, poor fit]",–
CC(C)(C)OC(=O)N1CCN(C(=O)c2[nH]cnc2C(=O)Nc2nccs2)CC1,"0.326 µM [falling, partial curve, poor fit]",–
COC(=O)c1cccc(N(CC(=O)NC2CCCC2)C(=O)CNC(=O)c2cccs2)c1,"11.2 µM [falling, partial curve, poor fit]",–
Cc1sc(N/N=C/c2cccnc2)nc1-c1ccc(Cl)cc1,"0.326 µM [rising, full curve, poor fit]",–
COc1ccc(NC(=O)Cn2nnc(-c3ccccc3NS(=O)(=O)c3ccc(OC)cc3)n2)cc1,–,"3.26 µM [falling, full curve]"
COc1ccc(/C=N/NC(=O)c2ccccc2O)cc1Cn1cc([N+](=O)[O-])cn1,"8.91 µM [falling, partial curve]",–
Cc1occc1C(=O)N/N=C/C1=C(N2CCOCC2)C(=C\c2ccc(Cl)cc2Cl)/CC1,"25.9 µM [falling, single point]",–
CC1=C/C(=N\OS(=O)(=O)c2ccccc2)C=CC1=O,"2.06 µM [rising, partial curve, poor fit]",–
COC(=O)c1sc(NC(=O)c2csc3c2CCCC3)nc1C,"2.31 µM [falling, partial curve, poor fit]",–
CCN1C(=O)CC(NNC(=O)c2ccc(Cl)cc2)C1=O (stereo not given),"3.16 µM [falling, partial curve, poor fit]",–
O=C1CC(Cc2ccccc2)C(=O)N1c1ccc(Cl)cn1 (stereo not given),"6.31 µM [rising, single point]",–
COc1ccccc1NS(=O)(=O)c1cc(NC(=O)Nc2ccc(Cl)cc2Cl)ccc1N1CCCCC1,"16.4 µM [rising, partial curve, poor fit]",–
O=[N+]([O-])c1ccc(S(=O)(=O)CC(CN2CCOCC2)N2CCOCC2)cc1 (stereo not given),"1.12 µM [falling, full curve, poor fit]",–
O=c1[nH]c2ccc(Cl)cc2c(-c2ccccc2)c1SC(=S)N1CCCCC1,"29.1 µM [rising, single point]",–

# Single records, as listed above:
# O=C(N/N=C/c1c[nH]c2ccccc12)c1cc2ccccc2o1 in the list: AC50 [1]: 35.5 µM [falling, single point]
# O=c1[nH]c2ccc(Cl)cc2c(-c2ccccc2)c1SC(=S)N1CCCCC1 in the list: AC50 [1]: 29.1 µM [rising, single point]
